Drawing on publication PMC11131313, this text covers binding for 4 molecules.

Sequences of proteins named here, by UniProt entry; tags and fusion partners are left off.
UniProt P32929: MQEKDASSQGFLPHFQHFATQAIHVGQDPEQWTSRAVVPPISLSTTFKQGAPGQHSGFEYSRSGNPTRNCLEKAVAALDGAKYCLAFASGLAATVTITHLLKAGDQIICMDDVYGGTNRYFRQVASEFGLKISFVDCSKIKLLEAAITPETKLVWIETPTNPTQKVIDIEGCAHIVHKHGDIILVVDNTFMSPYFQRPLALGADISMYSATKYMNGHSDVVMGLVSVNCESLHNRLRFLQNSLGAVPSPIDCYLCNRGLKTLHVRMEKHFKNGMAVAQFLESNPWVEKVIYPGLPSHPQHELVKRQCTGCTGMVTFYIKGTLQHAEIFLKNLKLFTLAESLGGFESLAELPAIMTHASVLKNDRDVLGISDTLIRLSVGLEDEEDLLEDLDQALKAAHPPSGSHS
UniProt Q9NS91: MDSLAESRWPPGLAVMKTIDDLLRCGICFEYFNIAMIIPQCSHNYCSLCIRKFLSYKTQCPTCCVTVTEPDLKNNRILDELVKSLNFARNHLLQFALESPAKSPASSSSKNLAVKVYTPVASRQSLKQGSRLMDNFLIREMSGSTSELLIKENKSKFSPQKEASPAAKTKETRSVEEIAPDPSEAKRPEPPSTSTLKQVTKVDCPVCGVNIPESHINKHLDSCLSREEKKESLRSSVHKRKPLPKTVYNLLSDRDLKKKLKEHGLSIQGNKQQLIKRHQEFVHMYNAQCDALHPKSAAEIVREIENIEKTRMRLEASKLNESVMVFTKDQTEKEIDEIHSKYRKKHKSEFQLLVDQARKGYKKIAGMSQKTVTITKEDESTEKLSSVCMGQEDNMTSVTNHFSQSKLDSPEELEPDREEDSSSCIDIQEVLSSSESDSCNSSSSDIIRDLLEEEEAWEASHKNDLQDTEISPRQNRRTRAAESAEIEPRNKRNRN
UniProt Q93008: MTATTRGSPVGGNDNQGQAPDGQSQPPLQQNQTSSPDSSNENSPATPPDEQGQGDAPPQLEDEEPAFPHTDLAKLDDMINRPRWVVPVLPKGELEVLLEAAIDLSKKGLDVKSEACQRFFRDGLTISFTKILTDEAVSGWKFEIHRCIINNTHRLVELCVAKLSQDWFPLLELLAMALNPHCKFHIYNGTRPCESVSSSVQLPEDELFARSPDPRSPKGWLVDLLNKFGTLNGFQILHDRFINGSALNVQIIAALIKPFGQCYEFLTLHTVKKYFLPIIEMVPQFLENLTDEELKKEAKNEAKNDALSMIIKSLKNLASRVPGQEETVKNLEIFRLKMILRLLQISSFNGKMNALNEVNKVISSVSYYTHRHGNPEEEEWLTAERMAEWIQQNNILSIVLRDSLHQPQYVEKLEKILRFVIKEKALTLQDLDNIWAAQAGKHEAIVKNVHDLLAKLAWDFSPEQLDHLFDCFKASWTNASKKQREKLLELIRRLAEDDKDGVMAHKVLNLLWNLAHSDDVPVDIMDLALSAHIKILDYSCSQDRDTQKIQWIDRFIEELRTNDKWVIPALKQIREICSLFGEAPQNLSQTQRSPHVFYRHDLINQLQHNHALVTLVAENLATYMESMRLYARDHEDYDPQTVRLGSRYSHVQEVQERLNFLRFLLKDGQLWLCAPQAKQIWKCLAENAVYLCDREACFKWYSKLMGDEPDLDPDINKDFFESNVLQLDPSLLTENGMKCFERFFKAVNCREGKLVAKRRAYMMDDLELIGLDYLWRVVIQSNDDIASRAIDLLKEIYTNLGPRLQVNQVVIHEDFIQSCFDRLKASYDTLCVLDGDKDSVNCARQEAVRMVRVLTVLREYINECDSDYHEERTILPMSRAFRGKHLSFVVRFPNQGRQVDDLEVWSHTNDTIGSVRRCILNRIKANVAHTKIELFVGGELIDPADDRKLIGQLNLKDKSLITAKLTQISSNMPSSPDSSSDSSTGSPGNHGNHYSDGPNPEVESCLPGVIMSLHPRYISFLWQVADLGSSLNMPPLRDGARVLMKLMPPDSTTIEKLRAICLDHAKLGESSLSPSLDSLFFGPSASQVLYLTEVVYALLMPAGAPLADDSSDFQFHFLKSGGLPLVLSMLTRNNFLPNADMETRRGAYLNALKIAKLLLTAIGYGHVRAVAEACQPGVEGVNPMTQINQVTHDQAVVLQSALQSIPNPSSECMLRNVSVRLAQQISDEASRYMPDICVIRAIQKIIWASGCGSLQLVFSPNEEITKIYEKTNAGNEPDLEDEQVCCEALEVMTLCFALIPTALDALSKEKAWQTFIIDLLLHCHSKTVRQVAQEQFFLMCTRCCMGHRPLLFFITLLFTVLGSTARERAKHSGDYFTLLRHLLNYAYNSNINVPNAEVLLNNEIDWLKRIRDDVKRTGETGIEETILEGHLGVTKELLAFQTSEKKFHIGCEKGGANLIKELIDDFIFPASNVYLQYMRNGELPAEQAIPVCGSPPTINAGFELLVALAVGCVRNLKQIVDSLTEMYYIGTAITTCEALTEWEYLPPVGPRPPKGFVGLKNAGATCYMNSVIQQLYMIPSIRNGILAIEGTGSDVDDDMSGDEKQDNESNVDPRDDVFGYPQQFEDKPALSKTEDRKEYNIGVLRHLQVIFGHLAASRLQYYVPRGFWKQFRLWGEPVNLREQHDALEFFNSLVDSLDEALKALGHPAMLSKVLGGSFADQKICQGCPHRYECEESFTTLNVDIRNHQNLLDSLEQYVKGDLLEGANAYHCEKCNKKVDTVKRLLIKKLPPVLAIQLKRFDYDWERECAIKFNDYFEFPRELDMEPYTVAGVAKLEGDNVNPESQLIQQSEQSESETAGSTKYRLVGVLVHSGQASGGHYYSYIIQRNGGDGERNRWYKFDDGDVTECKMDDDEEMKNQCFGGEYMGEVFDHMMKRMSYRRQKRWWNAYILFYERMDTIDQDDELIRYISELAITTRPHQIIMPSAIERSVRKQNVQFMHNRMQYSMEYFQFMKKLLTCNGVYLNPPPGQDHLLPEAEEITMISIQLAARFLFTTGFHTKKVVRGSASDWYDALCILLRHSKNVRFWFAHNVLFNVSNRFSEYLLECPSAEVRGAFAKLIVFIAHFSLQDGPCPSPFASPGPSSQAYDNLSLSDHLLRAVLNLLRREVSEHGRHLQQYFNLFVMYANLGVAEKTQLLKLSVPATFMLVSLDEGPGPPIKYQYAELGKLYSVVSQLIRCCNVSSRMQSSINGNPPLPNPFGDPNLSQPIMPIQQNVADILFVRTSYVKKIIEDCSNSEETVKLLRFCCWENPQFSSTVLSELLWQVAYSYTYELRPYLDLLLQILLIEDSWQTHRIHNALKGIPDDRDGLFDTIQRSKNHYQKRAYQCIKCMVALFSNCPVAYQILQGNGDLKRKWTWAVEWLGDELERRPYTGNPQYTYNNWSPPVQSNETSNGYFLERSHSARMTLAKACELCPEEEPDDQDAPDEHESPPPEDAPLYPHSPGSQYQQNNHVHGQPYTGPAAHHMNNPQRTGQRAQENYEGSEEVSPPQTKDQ

These are yes or no findings as the source states them, for the method shown. Binding seen in cells or lysates may run through a third protein. Some results given as binding are weak or reduced against the parent protein; the word gives no strength.

Assay [1] concerns the target cystathionine γ-lyase (CTH) (human (endogenous in A549 and H1299)) (UniProt P32929). Put plainly: co-IP; endogenous proteins in A549 and H1299 lysates; antibody 1 h at low temperature, A/G beads overnight, 5 washes with NETN buffer, Western blotting.
A further assay has as its target GST-CTH fusion protein (UniProt P32929). The assay is described as follows: pull-down; GST-CTH plus GST beads incubated with lysate of HEK293T cells transfected with Flag-Rad18 (in Fig. 4L with the corresponding plasmids, REV1 overexpression), 4 °C overnight, 5 washes with NETN buffer, Western blotting. Background: A western blot detects proteins with antibodies after separation by electrophoresis.

Another assay addresses T1, SFB-REV1 (UniProt Q9UBZ9).
T1 sequence: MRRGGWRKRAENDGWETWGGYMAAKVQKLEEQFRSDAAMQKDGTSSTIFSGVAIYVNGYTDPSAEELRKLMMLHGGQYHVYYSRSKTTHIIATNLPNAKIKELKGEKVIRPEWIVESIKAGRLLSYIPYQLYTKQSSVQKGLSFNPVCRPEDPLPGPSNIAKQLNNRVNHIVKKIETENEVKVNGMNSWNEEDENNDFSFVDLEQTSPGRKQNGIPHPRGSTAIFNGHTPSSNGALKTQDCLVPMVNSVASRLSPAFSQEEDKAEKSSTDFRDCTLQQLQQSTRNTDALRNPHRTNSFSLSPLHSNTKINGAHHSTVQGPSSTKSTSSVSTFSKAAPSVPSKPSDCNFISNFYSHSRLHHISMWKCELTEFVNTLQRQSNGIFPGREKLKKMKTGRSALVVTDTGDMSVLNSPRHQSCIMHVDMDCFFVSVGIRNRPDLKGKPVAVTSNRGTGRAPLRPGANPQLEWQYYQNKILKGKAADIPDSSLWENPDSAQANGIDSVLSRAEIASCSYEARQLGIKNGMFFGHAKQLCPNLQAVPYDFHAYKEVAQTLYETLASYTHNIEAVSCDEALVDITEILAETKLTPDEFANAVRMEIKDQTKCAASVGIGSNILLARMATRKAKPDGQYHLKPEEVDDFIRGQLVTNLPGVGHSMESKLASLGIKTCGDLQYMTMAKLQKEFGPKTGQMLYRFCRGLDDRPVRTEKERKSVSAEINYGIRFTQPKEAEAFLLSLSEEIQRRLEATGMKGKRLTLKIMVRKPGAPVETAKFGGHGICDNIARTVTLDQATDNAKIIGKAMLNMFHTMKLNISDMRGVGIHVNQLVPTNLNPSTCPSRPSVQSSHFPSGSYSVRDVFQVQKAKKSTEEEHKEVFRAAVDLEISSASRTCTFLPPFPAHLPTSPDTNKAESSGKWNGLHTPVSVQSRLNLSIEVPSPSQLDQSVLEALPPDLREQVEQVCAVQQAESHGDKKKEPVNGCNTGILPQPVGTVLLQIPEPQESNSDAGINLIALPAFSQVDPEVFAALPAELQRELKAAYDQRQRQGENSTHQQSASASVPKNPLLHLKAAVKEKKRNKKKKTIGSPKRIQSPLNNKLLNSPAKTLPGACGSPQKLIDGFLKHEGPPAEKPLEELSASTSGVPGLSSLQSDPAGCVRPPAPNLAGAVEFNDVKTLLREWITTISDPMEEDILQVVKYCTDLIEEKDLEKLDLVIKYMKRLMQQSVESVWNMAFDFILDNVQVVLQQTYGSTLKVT
Put plainly: co-IP; A549 cells transfected with SFB-REV1 for 24 h; supernatants incubated with S beads overnight at 4 °C, 5 washes with NETN buffer, Western blotting for endogenous USP9X.

Assay [2] has as its target T2, REV1 DNA directed polymerase (REV1) (human (endogenous in A549 and H1299)) (UniProt Q9UBZ9).
T2 sequence: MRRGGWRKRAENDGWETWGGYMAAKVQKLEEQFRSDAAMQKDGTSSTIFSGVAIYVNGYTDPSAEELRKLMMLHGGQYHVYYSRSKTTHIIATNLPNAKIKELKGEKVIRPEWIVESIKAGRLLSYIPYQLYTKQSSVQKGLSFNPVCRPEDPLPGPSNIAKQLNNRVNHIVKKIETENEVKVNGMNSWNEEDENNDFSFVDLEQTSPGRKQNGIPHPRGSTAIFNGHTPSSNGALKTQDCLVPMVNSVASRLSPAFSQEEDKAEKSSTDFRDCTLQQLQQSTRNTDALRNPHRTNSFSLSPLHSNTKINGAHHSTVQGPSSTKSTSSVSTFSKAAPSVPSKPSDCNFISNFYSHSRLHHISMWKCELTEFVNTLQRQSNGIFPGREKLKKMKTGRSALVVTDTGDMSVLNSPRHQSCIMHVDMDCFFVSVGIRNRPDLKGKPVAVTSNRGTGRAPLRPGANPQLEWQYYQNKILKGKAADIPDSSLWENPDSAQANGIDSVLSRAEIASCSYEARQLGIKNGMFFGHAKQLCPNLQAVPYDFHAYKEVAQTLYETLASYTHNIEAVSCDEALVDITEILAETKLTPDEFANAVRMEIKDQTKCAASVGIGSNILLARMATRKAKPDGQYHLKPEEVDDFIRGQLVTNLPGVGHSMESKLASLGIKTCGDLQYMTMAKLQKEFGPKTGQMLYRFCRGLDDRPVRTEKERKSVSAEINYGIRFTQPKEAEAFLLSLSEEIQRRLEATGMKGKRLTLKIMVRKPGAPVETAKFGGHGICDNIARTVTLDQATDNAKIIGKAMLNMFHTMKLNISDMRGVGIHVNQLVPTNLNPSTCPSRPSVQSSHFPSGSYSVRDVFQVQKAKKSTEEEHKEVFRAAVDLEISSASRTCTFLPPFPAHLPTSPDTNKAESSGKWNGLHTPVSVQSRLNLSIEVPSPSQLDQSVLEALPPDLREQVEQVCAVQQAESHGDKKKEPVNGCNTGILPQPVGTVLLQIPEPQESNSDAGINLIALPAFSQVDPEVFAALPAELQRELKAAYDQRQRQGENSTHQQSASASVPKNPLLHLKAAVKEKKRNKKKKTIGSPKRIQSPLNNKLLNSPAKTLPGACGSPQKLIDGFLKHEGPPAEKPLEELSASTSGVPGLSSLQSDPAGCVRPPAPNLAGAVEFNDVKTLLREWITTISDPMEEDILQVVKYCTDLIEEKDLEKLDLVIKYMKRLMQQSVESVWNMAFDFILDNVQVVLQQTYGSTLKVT
Put plainly: co-IP; endogenous REV1 co-IP, blotted for the targets of the four screened drugs; antibody 1 h at low temperature, A/G beads overnight, 5 washes with NETN buffer.

Consider “E3 ubiquitin ligase Rad18 (from UniProt Q9NS91 1-495) (enzyme)”, for which, in assay [1], the binding entry was “binds”. Regarding “Flag-Rad18 (from UniProt Q9NS91 1-495) (enzyme)”, the binding result with GST-CTH fusion protein is recorded as “binds”. As for “ubiquitin-specific peptidase 9 X-linked (USP9X) (from UniProt Q93008 1-2554) (enzyme)”, the binding result (with SFB-REV1; in assay [2]) was “binds” throughout.

B1: REV1 DNA directed polymerase (REV1) (protein, UniProt Q9UBZ9 1-1251)
chain: MRRGGWRKRAENDGWETWGGYMAAKVQKLEEQFRSDAAMQKDGTSSTIFSGVAIYVNGYTDPSAEELRKLMMLHGGQYHVYYSRSKTTHIIATNLPNAKIKELKGEKVIRPEWIVESIKAGRLLSYIPYQLYTKQSSVQKGLSFNPVCRPEDPLPGPSNIAKQLNNRVNHIVKKIETENEVKVNGMNSWNEEDENNDFSFVDLEQTSPGRKQNGIPHPRGSTAIFNGHTPSSNGALKTQDCLVPMVNSVASRLSPAFSQEEDKAEKSSTDFRDCTLQQLQQSTRNTDALRNPHRTNSFSLSPLHSNTKINGAHHSTVQGPSSTKSTSSVSTFSKAAPSVPSKPSDCNFISNFYSHSRLHHISMWKCELTEFVNTLQRQSNGIFPGREKLKKMKTGRSALVVTDTGDMSVLNSPRHQSCIMHVDMDCFFVSVGIRNRPDLKGKPVAVTSNRGTGRAPLRPGANPQLEWQYYQNKILKGKAADIPDSSLWENPDSAQANGIDSVLSRAEIASCSYEARQLGIKNGMFFGHAKQLCPNLQAVPYDFHAYKEVAQTLYETLASYTHNIEAVSCDEALVDITEILAETKLTPDEFANAVRMEIKDQTKCAASVGIGSNILLARMATRKAKPDGQYHLKPEEVDDFIRGQLVTNLPGVGHSMESKLASLGIKTCGDLQYMTMAKLQKEFGPKTGQMLYRFCRGLDDRPVRTEKERKSVSAEINYGIRFTQPKEAEAFLLSLSEEIQRRLEATGMKGKRLTLKIMVRKPGAPVETAKFGGHGICDNIARTVTLDQATDNAKIIGKAMLNMFHTMKLNISDMRGVGIHVNQLVPTNLNPSTCPSRPSVQSSHFPSGSYSVRDVFQVQKAKKSTEEEHKEVFRAAVDLEISSASRTCTFLPPFPAHLPTSPDTNKAESSGKWNGLHTPVSVQSRLNLSIEVPSPSQLDQSVLEALPPDLREQVEQVCAVQQAESHGDKKKEPVNGCNTGILPQPVGTVLLQIPEPQESNSDAGINLIALPAFSQVDPEVFAALPAELQRELKAAYDQRQRQGENSTHQQSASASVPKNPLLHLKAAVKEKKRNKKKKTIGSPKRIQSPLNNKLLNSPAKTLPGACGSPQKLIDGFLKHEGPPAEKPLEELSASTSGVPGLSSLQSDPAGCVRPPAPNLAGAVEFNDVKTLLREWITTISDPMEEDILQVVKYCTDLIEEKDLEKLDLVIKYMKRLMQQSVESVWNMAFDFILDNVQVVLQQTYGSTLKVT
With B1, the binding result in assay [1] is “binds”.
